This is an account of results in article PMC7961652.

Protein sequences, listed by entry. Tags and fused reporters are not part of them.
UniProt P48436: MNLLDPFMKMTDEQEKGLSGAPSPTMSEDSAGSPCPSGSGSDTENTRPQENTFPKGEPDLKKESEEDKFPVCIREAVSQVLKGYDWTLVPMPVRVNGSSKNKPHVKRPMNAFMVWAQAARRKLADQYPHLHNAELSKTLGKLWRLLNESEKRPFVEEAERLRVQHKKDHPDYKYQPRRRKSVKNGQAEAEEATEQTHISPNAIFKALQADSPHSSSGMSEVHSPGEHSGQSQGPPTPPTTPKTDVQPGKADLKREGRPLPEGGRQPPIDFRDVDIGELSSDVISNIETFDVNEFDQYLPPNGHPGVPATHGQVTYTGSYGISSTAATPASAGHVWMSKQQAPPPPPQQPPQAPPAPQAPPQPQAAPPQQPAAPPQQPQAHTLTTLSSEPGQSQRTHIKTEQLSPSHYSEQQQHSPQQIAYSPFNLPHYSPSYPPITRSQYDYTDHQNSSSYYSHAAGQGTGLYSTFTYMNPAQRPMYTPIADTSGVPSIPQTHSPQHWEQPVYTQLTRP

Results are given in words; binding and its absence hold for the method and conditions named. Binding seen in cells or lysates may run through a third protein. Some results given as binding are weak or reduced against the parent protein; the word gives no strength.

For the test, the target named is SOX9 (human (endogenous in HepG2)) (UniProt P48436). Kind of test: co-IP; lysates of HepG2 cells transduced with Ad-GFP or Ad-ARMCX3 (48 h) incubated 2 h with anti-SOX9 antibody or rabbit IgG isotype control on Protein A magnetic beads, eluted with Laemmli buffer, blotted with anti-ARMCX3.

B1: ARMCX3 (murine transgene Armcx3) (protein, UniProt Q8BHS6 1-379)
chain: MGYARKVGWVTAGLVIGAGACYCIYRLTRGRKQNKEKMAEGGSGDVDDAGDCSGARYNDWSDDDDDSNESKSIVWYPPWARIGTEAGTRARARARARATRARRAVQKRASPNSDDTVLSPQELQKVLCLVEMSEKPYILEAALIALGNNAAYAFNRDIIRDLGGLPIVAKILNTRDPIVKEKALIVLNNLSVNAENQRRLKVYMNQVCDDTVTSRLNSSVQLAGLRLLTNMTVTNEYQHILANSISDFFRLFSAGNEETKLQVLKLLLNLAENPAMTRELLRAQVPSSLGSLFNKKEYKEVILKLLIIFENINDNFKWEENEPAQNHFSEGSLFFFLKEFQVCADKVLGIESRHDFQVRVKVGKFVAKLTERMFPKSQE
Take B1: the binding result is given as “binds”.
